Results of single-concentration screens

Amino acid sequences for entries named in this document (tags omitted). Residues count along the entry.
UniProt I6X8D2, whole entry: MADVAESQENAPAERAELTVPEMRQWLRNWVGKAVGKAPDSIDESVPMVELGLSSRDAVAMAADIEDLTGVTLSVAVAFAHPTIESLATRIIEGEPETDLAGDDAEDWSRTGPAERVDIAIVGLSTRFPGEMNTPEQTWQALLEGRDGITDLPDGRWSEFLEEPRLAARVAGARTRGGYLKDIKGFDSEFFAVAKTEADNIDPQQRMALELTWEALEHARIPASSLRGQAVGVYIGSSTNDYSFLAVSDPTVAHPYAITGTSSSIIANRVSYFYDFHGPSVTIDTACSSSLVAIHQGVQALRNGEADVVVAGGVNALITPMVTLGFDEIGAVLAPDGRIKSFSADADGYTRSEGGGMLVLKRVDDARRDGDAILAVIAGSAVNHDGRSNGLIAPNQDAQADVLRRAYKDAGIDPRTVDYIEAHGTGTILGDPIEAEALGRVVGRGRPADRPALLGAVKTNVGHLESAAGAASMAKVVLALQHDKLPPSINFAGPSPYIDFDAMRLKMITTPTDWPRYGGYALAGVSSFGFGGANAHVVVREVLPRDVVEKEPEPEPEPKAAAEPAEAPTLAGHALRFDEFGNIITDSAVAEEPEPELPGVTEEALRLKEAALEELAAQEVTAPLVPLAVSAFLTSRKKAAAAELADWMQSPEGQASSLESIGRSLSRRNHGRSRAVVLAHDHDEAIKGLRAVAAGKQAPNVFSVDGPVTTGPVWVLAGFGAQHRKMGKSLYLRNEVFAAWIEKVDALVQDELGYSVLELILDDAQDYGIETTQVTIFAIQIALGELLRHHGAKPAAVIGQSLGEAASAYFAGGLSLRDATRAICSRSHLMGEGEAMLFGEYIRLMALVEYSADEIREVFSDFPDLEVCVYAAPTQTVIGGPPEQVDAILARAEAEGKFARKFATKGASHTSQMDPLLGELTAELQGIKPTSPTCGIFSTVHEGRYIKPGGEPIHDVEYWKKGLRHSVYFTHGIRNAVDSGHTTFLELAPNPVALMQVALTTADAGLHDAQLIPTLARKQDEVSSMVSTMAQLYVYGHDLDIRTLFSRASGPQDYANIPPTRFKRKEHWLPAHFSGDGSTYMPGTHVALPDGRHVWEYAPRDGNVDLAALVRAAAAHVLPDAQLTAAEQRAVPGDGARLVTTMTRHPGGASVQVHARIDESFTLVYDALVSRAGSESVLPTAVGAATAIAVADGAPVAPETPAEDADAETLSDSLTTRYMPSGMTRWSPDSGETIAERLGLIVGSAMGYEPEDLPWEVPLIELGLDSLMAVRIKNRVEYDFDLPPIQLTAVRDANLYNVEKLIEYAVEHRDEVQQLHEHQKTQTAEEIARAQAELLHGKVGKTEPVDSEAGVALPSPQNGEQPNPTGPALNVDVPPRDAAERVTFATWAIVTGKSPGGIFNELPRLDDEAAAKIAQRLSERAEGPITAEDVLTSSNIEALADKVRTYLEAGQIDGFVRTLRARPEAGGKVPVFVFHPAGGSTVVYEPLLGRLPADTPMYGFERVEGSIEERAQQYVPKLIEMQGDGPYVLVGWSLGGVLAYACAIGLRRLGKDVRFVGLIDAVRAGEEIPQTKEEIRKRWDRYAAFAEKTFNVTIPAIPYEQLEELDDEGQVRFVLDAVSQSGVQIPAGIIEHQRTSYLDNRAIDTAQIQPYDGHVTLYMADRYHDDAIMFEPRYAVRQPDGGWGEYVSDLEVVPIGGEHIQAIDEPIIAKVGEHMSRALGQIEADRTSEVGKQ
UniProt Q8IDJ8, 1-583: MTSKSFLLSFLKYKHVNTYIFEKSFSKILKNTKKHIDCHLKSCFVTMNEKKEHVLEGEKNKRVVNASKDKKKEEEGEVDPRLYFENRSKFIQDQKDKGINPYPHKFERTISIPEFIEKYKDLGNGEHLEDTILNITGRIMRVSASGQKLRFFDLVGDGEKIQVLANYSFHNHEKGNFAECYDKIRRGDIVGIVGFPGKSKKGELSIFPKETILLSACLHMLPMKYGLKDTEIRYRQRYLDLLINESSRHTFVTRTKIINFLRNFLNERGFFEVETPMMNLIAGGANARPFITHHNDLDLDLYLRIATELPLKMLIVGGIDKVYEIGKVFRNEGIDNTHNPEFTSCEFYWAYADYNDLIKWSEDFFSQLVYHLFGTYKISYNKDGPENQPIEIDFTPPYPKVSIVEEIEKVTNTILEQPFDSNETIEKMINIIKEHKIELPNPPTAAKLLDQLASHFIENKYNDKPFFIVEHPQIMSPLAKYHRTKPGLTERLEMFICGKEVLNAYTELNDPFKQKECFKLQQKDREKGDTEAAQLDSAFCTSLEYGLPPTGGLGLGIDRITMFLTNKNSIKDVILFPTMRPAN
UniProt P9WNZ1, whole entry: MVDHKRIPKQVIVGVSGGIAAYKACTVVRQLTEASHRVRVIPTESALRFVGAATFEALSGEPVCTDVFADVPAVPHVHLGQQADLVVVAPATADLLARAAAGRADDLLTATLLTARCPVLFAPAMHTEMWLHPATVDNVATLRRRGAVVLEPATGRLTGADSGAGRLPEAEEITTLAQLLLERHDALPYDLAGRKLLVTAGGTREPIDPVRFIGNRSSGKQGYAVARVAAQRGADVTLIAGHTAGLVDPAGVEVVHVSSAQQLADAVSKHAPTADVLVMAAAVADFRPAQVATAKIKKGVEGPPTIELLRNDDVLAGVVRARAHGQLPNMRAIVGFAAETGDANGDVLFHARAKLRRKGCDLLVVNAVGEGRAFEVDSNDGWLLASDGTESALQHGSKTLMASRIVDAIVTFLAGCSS

The values are deposited in ChEMBL (CHEMBL3988442, “University of Dundee, Small-Polar-MMV Screening Library” (2021)).

Values are the deposited “Percent Effect”, in %. How 0% and 100% were set is not recorded. Most values in the screen are low, and negative values occur. This is an unselected part of the compounds tested. Two or more numbers in one place are separate tests of the same structure; such repeats can differ widely. A dash means the value is not listed here; it may have been measured.

Toxoplasma: 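Assay of Toxoplasma gondii numbers, read through their beta-galactosidase reporter with a colour substrate. Tested at 10 µM. The record gives no direction; the compounds picked for IC50 retests had high values, so higher reads as fewer parasites. About 67,000 compounds were tested under these conditions; 0.38% (about 260) showed 50% or more at least once.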
Pks13 thioesterase: 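Enzyme assay of the thioesterase domain of polyketide synthase 13; the read-out is not stated. Target: Polyketide synthase Pks13, Mycobacterium tuberculosis (UniProt I6X8D2). Tested at 30 µM. The record gives no direction; the compounds picked for IC50 retests had high values, so higher reads as stronger inhibition. Size under these conditions: about 67,000 compounds, about 300 of them at 50% or above in at least one test.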
PfKRS1: 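Enzyme assay of the cytosolic lysyl-tRNA synthetase in 384-well plates, read by luminescence. Target: Lysine-tRNA ligase, Plasmodium falciparum 3D7 (UniProt Q8IDJ8). Tested at 30 µM. Direction is inferred from only a few compounds that gave an IC50; most scored high, so higher reads as stronger inhibition. Of about 69,000 compounds tested this way, about 49 (0.071%) reached 50% or more in at least one test.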
CoaBC: 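Coenzyme A biosynthesis protein CoaBC, Mycobacterium tuberculosis (UniProt P9WNZ1). Enzyme assay of CoaBC with a phosphate dye (Biomol Green) read at 650 nm. Tested at 30 µM. Direction is inferred from only a few compounds that gave an IC50; most scored high, so higher reads as stronger inhibition. Most strong results did not repeat in a second test. Size under these conditions: about 67,000 compounds, about 40 of them at 50% or above in at least one test.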

structure	Toxoplasma	Pks13 thioesterase	PfKRS1	CoaBC
O=C(NCCNc1ncccn1)N1CCN(C2CCCC2)CC1	13.33	-10.81	-0.2188	-2.445
CCC[C@@H]1CN(S(=O)(=O)c2ccc3[nH]c(=O)[nH]c3c2)C[C@H]1NC(C)=O	-15.93	-7.153	1.624	0.495
CCc1noc(C(C)N(C)CC(=O)Nc2c(C)cccc2C)n1 (configuration not stated)	-3.503	-2.801	7.616	10.02
CN(C)C(=O)[C@H]1CO[C@H]2CCN(c3ncc(F)cn3)C[C@H]2C1	-	-3.375	0.5661	15.41
[H][C@@]12CS(=O)(=O)C[C@]1([H])N(C(=O)c1ccco1)CCN2S(C)(=O)=O	-4.068	-	-	-
CCN1CCC(NC(=O)CN2CCCC2Cn2nc(C)cc2C)CC1 (configuration not stated)	4.997	-7.548	14.69	5.575
CC(C)CN1CCC(NCCNc2cccnc2)CC1	-0.8555	-9.151	1.971	2.926
CCn1c(C)nnc1SCCNC(=O)c1cccc2ccnn12	9.016	-12.04	-7.053	6.4
COC(=O)C(O)C1CCN(Cc2cccc(-n3cccn3)c2)CC1 (configuration not stated)	-15.95	7.177	1.085	1.474
NC(=O)c1cccc(CNC/C=C/c2ccccc2)c1	0.413	-17.01	-0.09958	-16.53
Cc1ccc(CN2CCc3onc(C(=O)N4CCCC4)c3C2)o1	-	-0.1701	-0.577	0.8485
CCc1nnc(CN(C)c2nc(C3CCCC3)nc3c2cnn3C)o1	0.4071	-9.522	-2.005	9.705
O=S(=O)(CCNCc1cc(O)c2cc(F)ccc2n1)N1CCCC1	10.8	-13.25	-5.32	0.6098
CC(C)N1CCOC[C@H]1c1nc(C(C)(C)C)c[nH]1	9.363	-1.47	0.2522	6.402
O=C(O)C(F)(F)F.[H][C@@]12CCN(Cc3cn(C)c4ccccc34)[C@]1([H])CC[C@@H](C(=O)NC1CC1)O2	10.72	-	-	-
Cc1cn2c(n1)C(CNCc1ccc(C)s1)CCC2 (configuration not stated)	-2.786	-14.06	0.6344	-20.56
Cc1ccc(C(CNCc2cccc3c2OCO3)N2CCOCC2)o1 (configuration not stated)	-31.99	-2.113	2.134	2.525
Cn1cc(S(=O)(=O)NCC2CCN(C(=O)Oc3ccccc3)CC2)cn1	14.12	3.939	4.882	2.133
N#Cc1cccc(NC(=O)N2CCCC(N3CCCC3=O)C2)c1 (configuration not stated)	2.841	-5.915	-0.678	-6.341
CC(=O)N1CCN(c2cnnc(N3CCCC3)c2)CC1	6.563	-27.89	0.7812	-1.022
O=C(Nc1nncs1)NC1CCc2ccccc21 (configuration not stated)	-1.812	15.11	6.117	4.946
CCn1nc(C)c2ncnc(NCCn3cccn3)c21	22.41	-0.8268	0.4019	-2.641
[H][C@@]12OCCN(C(=O)CC3=CCCCC3)[C@@]1([H])CC[C@H]2OCC	-13.75	-	-	-
CCNC(=O)CCC(=O)NC1(c2cccc(Br)c2)CC1	-7.965	-28.54	5.467	4.167
O=C(O)C(F)(F)F.[H][C@]12CCN(c3cncnc3)C(=O)[C@]1([H])CN(Cc1ccccn1)C2	0.3101	-	-	-
CCn1cc(CCC(=O)NCc2csc(C3CC3)n2)c(C)n1	-1.325	-9.093	3.865	1.042
Cc1ccc(CN2CCNC(=O)C2CC(=O)N2CCSCC2)o1 (configuration not stated)	3.712	2.141	-1.329	-2.303
Cc1nn(C)c(Cl)c1C1CCCN1Cc1nnc(C2CC2)o1 (configuration not stated)	7.117	-8.541	-0.1455	0.3911
CC1=C(C(=O)NCc2cccnc2-n2cnc3ccccc32)OCCO1	-7.721	-11.26	4.886	5.159
Cn1cc(C(=O)NCc2ccc(N3CCNC(=O)C3)c(F)c2)cn1	-7.448	11.13	2.603	-2.445
CC(=O)N1CCC2(CC1)CC(NS(C)(=O)=O)c1ccccc1O2 (configuration not stated)	-1.535	-10.31	5.415	-4.737
CSCCC(=O)N1CCCC(n2ccnc2)C1 (configuration not stated)	-13.92	-26.22	-0.2278	2.681
CC(NC(=O)c1ccc(C(N)=O)cc1)c1cccc(N2CCOC2=O)c1 (configuration not stated)	-36.43	-7.456	0.1329	-2.19
COc1ccc(CN[C@@H]2CO[C@H](CNC(=O)N3CCOCC3)[C@H]2O)cc1	8.486	-28.01	-3.38	25.39 and 6.349
CN(C)C(=O)c1nn(C)c2c1CN(Cc1cccs1)C2	-	-3.773	2.349	0.6165
O=C(NCC1CC1)[C@@H]1CC[C@@H]2[C@@H](CCN2CCOCc2ccccc2)O1	-	-11.18	4.341	0.9852
CC(C)c1nc(C(=O)N2CCc3ccccc3C2C(=O)O)cs1 (configuration not stated)	0.437	-12.57	-0.4409	-6.522
CC(C)Nc1nc(N2CCOCC2)nc2c1CN(Cc1ccoc1)CC2	-1.054	-30.6	-2.204	-1.813
Cc1n[nH]c2c1C(c1cnn(C)c1)SCC(=O)N2 (configuration not stated)	-2.152	-134.1	-0.1749	-5.787
CCO[C@H]1CN(CC2CC2)[C@@H]2CCCO[C@H]12	-	-14.74	3.191	1.609

The last 5 entries again:

| structure | Toxoplasma | Pks13 thioesterase | PfKRS1 | CoaBC |
|---|---|---|---|---|
| `O=C(NCC1CC1)[C@@H]1CC[C@@H]2[C@@H](CCN2CCOCc2ccccc2)O1` | - | -11.18 | 4.341 | 0.9852 |
| `CC(C)c1nc(C(=O)N2CCc3ccccc3C2C(=O)O)cs1` (configuration not stated) | 0.437 | -12.57 | -0.4409 | -6.522 |
| `CC(C)Nc1nc(N2CCOCC2)nc2c1CN(Cc1ccoc1)CC2` | -1.054 | -30.6 | -2.204 | -1.813 |
| `Cc1n[nH]c2c1C(c1cnn(C)c1)SCC(=O)N2` (configuration not stated) | -2.152 | -134.1 | -0.1749 | -5.787 |
| `CCO[C@H]1CN(CC2CC2)[C@@H]2CCCO[C@H]12` | - | -14.74 | 3.191 | 1.609 |